Assay results reported in patent publication US20100166775A1.
Results are given in words; binding and its absence hold for the method and conditions named. Some results given as binding are weak or reduced against the parent protein; the word gives no strength.

By UniProt entry, the sequences of proteins in these tests, tags left out. Where a name states a change or a piece, a line headed by the entry shows the natural chain unless it says otherwise.
UniProt O00206: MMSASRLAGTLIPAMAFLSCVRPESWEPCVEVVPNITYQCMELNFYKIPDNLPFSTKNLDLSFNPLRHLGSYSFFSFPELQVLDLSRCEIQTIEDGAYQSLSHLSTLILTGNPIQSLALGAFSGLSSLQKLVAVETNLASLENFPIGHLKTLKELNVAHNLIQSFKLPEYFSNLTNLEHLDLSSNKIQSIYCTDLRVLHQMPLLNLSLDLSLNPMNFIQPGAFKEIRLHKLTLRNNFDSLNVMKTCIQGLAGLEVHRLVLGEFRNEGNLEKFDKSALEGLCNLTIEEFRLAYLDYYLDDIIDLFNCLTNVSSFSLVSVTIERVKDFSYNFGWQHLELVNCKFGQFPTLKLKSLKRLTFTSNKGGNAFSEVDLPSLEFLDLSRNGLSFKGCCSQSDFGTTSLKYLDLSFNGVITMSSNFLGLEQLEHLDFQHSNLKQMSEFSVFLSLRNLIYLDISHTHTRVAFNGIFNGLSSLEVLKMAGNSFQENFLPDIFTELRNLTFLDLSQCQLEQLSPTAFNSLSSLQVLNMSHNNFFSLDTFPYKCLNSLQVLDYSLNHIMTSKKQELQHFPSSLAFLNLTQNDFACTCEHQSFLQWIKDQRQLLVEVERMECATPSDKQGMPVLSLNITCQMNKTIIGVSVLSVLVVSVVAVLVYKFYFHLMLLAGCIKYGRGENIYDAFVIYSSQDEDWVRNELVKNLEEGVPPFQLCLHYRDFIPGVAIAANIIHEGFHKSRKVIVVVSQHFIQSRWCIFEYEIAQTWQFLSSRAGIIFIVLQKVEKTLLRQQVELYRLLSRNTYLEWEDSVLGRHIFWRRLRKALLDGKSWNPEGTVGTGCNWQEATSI

Key:
[1] = biological target: recombinant human TLR4/MD-2 complex (R&D Systems cat. no. 3146-TN/CF) (human) (UniProt O00206); assay: SPR, S100A9 over amine-coupled TLR4/MD-2
[2] = biological target: recombinant human TLR4/MD-2 complex (R&D Systems cat. no. 3146-TN/CF) (human) (UniProt O00206); assay: SPR (Biacore), 100 and 200 nM S100A9 over amine-coupled human TLR4/MD-2, HBS-P with 1 mM CaCl2 and 10 µM ZnCl2, regeneration with 3 mM EDTA
[3] = biological target: recombinant human TLR4/MD-2 complex (R&D Systems cat. no. 3146-TN/CF) (human) (UniProt O00206); assay: SPR, 100 and 200 nM S100A9 over amine-coupled TLR4/MD-2, 1 mM CaCl2 and 10 µM ZnCl2

Measured: binding

B1: recombinant human S100A9 (ligand)
chain: MTCKMSQLERNIETIINTFHQYSVKLGHPDTLNQGEFKELVRKDLQNFLKKENKNEKVIEHIMEDLDTNADKQLSFEEFIMLMARLTWASHEKMHEGDEGPGHHHKPGLGEGTP
binds: all assays above
